Experimental data published in PubChem BioAssay AID493014 (National Center for Advancing Translational Sciences (NCATS), 2011).
Some of the results follow. These are further read-outs of the screen, such as a control signal, another cell line or another target. No call is given for them. Most of these compounds were active or inconclusive in the main read-out, so they are no random draw. Words in brackets tell the shape of the fitted curve; partial curves, single points and poor fits give uncertain potencies.

Experiment: qHTS Assay to Find Inhibitors of Chronic Active B-Cell Receptor Signaling
Details: ABC-DLBCL IkBa-CBG/CBR reporter, luminescence ratio (green luciferase fused to IkBa over red control in TMD8 lymphoma cells), 4 h; measured here: CBR red luminescence, cell number
In short: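 Cell line TMD8 (human ABC DLBCL), stably expressing tet-inducible CBG68-IkBa fusion and CBR; IMDM/0.5% FBS; cpd up to 46 uM; dox induction, 4 h, 37C/5% CO2; dual luminescence; green/red ratio; MG132 control.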

SMILES | AC50
O=C(Cc1ccccc1)N(Cc1cccnc1)c1nc2c(F)cccc2s1 | 35.5 µM [falling, single point]
Fc1ccc(C2CC(c3cccs3)=NN2c2ccccc2)cc1 (stereo not drawn) | 0.316 µM [rising, full curve, poor fit]
Cn1cc(Cl)c(C(=O)N/N=C/c2ccc(OS(=O)(=O)c3ccccc3)cc2)n1 | 10.3 µM [falling, partial curve, poor fit]
COc1ccc(COC(=O)Oc2ccc(CNC(C)=O)cc2OC)c([N+](=O)[O-])c1 | 0.0164 µM [rising, full curve, poor fit]
COc1ccc(/C=N/NC(=O)c2cc(C)oc2C)cc1OCc1ccccc1 | 8.91 µM [falling, partial curve, poor fit]
Cc1nn(CCOc2ccccc2)c(=O)n1-c1c(F)cccc1F | 1.64 µM [rising, partial curve]
Cc1cccc(N(C)C(=O)CN2C(=O)COc3ccc(S(=O)(=O)N4CCCCCC4)cc32)c1 | 1.41 µM [rising, full curve, poor fit]
COc1ccc(CN(C(=O)CNC(=O)c2ccco2)C(C(=O)NC2CCCC2)c2ccco2)cc1 (stereo not drawn) | 0.259 µM [rising, single point]
O=C(COC(=O)c1cccs1)NCc1ccco1 | 14.1 µM [rising, single point]
Cc1ccc(S(=O)(=O)Nc2cccc3c2O[C@H](CN(C)C(=O)Nc2cccc4ccccc24)[C@H](C)CN([C@H](C)CO)C3=O)cc1 | 29.1 µM [falling, single point]
CC(NC(=O)Cc1ccc(Br)cc1)c1ccccc1 (stereo not drawn) | 35.5 µM [rising, single point]
Cc1ccc(-n2cc(-c3ccccc3)c3c(NC4CCCC4)ncnc32)cc1 | 2.51 µM [rising, full curve]
CC1(C)CC(=O)CC(=NCC(=O)O)C1 | 6.51 µM [rising, single point]
CCOc1ccccc1NS(=O)(=O)c1cccs1 | 0.00411 µM [rising, full curve, poor fit]
O=S(=O)(c1ccc(Br)cc1)N1CCN(c2cc(-c3ccccc3)nc3ncnn23)CC1 | 29.1 µM [falling, single point]
O=C(O)CC1(CC(=O)Nc2ccc3ccccc3c2)CCCCC1 | 5.8 µM [falling, partial curve]
Cc1cc(C)cc(N2CN=C3SCC(=O)N3C2)c1 | 6.51 µM [rising, single point]
CCn1c(/C=C/c2ccc(O)cc2)nc2ccccc2c1=O | 28.2 µM [falling, single point]

Among those listed so far, 3 contain a thiophene ring, fused or not:
SMILES | AC50
Fc1ccc(C2CC(c3cccs3)=NN2c2ccccc2)cc1 (stereo not drawn) | 0.316 µM [rising, full curve, poor fit]
O=C(COC(=O)c1cccs1)NCc1ccco1 | 14.1 µM [rising, single point]
CCOc1ccccc1NS(=O)(=O)c1cccs1 | 0.00411 µM [rising, full curve, poor fit]
